US5486601A, “Trisazo dye, and aqueous ink composition containing the same” (priority 1993, dated 1996)

Tests used:
[1] = Water resistance of the handwriting (reflection density after dipping in tap water); details: Na salt, 3% dye in 5% aqueous ethylene glycol on writing paper; air-dried one hour, dipped in tap water
[2] = Light resistance of the handwriting (sunlight for one month); parameters: key: .circleincircle.: Color changing and fading are scarcely observed.; .smallcircle.: Color changing and fading are observed.; ×: Color changing and fading are severe; details: Na salt, 3% dye in 5% aqueous ethylene glycol on writing paper

Row | Compound | Fastness of the handwriting: water resistance [1] | Fastness of the handwriting: light resistance [2]
1 | Nc1ccc(N=Nc2ccc(N=Nc3c(S(=O)(=O)[O-])cc4cc(S(=O)(=O)[O-])c(N=Nc5ccc(N=Nc6ccc(N)cc6N)cc5)c(O)c4c3N)cc2)c(N)c1.[Na+].[Na+] [Comparative Example 1, C.I. Direct Black 19, reference compound] | .circleincircle. (The reflection density is not less than 70% of that before test.) | .smallcircle.
2 | Cc1cc(-c2ccc(N=Nc3c(S(=O)(=O)[O-])cc4cc(S(=O)(=O)[O-])c(N=Nc5ccccc5)c(O)c4c3N)c(C)c2)ccc1N=Nc1ccc(N)cc1N.[Na+].[Na+] [Comparative Example 2, C.I. Direct Black 154, reference compound] | .smallcircle. (The reflection density is within a range of 50 to 70% of that before test.) | .smallcircle.
3 | CCCCc1ccc(N=Nc2c(S(=O)(=O)O)cc3cc(S(=O)(=O)O)c(N=Nc4ccc(C5(c6ccc(N=Nc7ccc(N)cc7O)cc6)CCCCC5)cc4)c(N)c3c2O)cc1 [Example 1] | .circleincircle. (The reflection density is not less than 70% of that before test.) | .smallcircle.
4 | CCCCc1ccc(N=Nc2c(S(=O)(=O)O)cc3cc(S(=O)(=O)O)c(N=Nc4ccc(C5(c6ccc(N=Nc7ccc(O)cc7O)cc6)CCCCC5)cc4)c(N)c3c2O)cc1 [Example 2] | .smallcircle. (The reflection density is within a range of 50 to 70% of that before test.) | .smallcircle.
5 | CCC(C)c1ccc(N=Nc2c(S(=O)(=O)O)cc3cc(S(=O)(=O)O)c(N=Nc4ccc(C5(c6ccc(N=Nc7ccc(N)cc7O)cc6)CCCCC5)cc4)c(N)c3c2O)cc1 (stereo not drawn) [Example 3] | .circleincircle. (The reflection density is not less than 70% of that before test.) | .smallcircle.
6 | Nc1ccc(N=Nc2ccc(C3(c4ccc(N=Nc5c(S(=O)(=O)O)cc6cc(S(=O)(=O)O)c(N=Nc7ccccc7)c(O)c6c5N)cc4)CCCCC3)cc2)c(O)c1 [Example 4] | .smallcircle. (The reflection density is within a range of 50 to 70% of that before test.) | .smallcircle.
7 | CC(C)c1ccc(N=Nc2c(S(=O)(=O)O)cc3cc(S(=O)(=O)O)c(N=Nc4ccc(C5(c6ccc(N=Nc7ccc(N)cc7O)cc6)CCCCC5)cc4)c(N)c3c2O)cc1 [Example 5] | .circleincircle. (The reflection density is not less than 70% of that before test.) | .smallcircle.
8 | Cc1ccc(N=Nc2c(S(=O)(=O)O)cc3cc(S(=O)(=O)O)c(N=Nc4ccc(C5(c6ccc(N=Nc7ccc(N)cc7O)cc6)CCCCC5)cc4)c(N)c3c2O)cc1 [Example 6] | .circleincircle. (The reflection density is not less than 70% of that before test.) | .smallcircle.
9 | CCCCc1ccc(N=Nc2c(S(=O)(=O)O)cc3cc(S(=O)(=O)O)c(N=Nc4ccc(C5(c6ccc(N=Nc7ccc(N(CC)CC)cc7C)cc6)CCCCC5)cc4)c(N)c3c2O)cc1 [Example 7] | .circleincircle. (The reflection density is not less than 70% of that before test.) | .smallcircle.
10 | CCCCc1ccc(N=Nc2c(S(=O)(=O)O)cc3cc(S(=O)(=O)O)c(N=Nc4ccc(C5(c6ccc(N=Nc7ccc(N(C)C)cc7C(=O)O)cc6)CCCCC5)cc4)c(N)c3c2O)cc1 [Example 8] | .smallcircle. (The reflection density is within a range of 50 to 70% of that before test.) | .smallcircle.
11 | CCCCc1ccc(N=Nc2c(S(=O)(=O)O)cc3cc(S(=O)(=O)O)c(N=Nc4ccc(C5(c6ccc(N=Nc7ccc(N(C)C)cc7O)cc6)CCCCC5)cc4)c(N)c3c2O)cc1 [Example 9] | .smallcircle. (The reflection density is within a range of 50 to 70% of that before test.) | .smallcircle.
12 | C.I. Direct Black 168 [Comparative Example 3, reference compound] | .smallcircle. (The reflection density is within a range of 50 to 70% of that before test.) | .smallcircle.
